From the supplement of paper PMC10849652
This is one part of the list.

Sequences of proteins named here, by UniProt entry; tags and fusion partners are left off. A change or cut given only in a name is not applied to a line headed by its entry.
UniProt Q15645: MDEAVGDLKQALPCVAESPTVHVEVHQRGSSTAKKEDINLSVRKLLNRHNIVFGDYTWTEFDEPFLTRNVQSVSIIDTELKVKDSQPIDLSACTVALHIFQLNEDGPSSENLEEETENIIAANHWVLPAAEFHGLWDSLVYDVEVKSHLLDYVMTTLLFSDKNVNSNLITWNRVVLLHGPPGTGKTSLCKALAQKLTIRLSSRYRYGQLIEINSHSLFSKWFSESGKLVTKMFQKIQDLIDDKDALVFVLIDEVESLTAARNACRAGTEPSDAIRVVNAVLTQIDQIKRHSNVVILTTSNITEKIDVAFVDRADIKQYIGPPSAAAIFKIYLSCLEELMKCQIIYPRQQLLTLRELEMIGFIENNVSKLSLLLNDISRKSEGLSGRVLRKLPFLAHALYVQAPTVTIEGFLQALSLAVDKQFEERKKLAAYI
UniProt Q8IUR0, whole entry, looked up: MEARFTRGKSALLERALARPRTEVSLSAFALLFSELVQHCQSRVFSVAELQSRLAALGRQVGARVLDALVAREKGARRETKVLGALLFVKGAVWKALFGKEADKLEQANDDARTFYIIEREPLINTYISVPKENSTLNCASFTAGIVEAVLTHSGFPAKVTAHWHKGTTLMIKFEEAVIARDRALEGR
UniProt P02585, whole entry, looked up: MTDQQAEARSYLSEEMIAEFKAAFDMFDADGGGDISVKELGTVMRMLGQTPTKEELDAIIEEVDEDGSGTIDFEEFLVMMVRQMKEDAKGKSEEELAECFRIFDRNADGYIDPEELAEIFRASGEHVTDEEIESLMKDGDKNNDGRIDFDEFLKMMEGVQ
UniProt Q9BUZ4: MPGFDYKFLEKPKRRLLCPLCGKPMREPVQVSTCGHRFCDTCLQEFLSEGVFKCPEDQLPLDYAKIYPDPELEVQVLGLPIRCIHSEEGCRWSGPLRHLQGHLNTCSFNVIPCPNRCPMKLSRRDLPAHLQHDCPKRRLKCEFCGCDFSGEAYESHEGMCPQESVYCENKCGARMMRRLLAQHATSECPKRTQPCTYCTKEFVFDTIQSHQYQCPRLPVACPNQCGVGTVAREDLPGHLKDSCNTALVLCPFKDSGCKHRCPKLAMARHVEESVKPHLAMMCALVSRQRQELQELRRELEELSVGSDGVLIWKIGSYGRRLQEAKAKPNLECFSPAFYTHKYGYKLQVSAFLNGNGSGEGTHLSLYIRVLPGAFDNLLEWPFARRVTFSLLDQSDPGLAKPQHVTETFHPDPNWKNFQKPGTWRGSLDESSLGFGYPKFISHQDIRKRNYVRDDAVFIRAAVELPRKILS
UniProt Q9BRZ2: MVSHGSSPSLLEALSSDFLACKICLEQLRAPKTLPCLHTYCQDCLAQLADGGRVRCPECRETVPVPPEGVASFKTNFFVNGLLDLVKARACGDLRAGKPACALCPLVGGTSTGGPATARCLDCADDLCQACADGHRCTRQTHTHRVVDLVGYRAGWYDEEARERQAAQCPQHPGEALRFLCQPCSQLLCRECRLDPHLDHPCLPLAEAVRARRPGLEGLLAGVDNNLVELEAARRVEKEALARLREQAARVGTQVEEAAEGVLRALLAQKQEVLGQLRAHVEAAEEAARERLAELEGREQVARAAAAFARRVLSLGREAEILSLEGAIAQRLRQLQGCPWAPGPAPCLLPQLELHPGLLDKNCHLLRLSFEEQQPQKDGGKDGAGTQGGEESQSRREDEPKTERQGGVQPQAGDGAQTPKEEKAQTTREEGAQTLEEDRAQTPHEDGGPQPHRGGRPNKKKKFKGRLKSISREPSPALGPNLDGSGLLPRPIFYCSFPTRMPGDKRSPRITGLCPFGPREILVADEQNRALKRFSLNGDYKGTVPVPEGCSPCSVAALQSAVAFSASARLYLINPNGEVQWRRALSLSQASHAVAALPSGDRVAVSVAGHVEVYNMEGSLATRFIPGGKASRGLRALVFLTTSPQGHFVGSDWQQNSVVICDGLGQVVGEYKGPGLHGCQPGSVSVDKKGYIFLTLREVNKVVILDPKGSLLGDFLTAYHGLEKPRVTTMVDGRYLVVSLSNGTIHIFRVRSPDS
UniProt Q9P0U1: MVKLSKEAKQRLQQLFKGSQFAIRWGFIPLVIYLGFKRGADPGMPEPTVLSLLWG
UniProt Q9NUP7: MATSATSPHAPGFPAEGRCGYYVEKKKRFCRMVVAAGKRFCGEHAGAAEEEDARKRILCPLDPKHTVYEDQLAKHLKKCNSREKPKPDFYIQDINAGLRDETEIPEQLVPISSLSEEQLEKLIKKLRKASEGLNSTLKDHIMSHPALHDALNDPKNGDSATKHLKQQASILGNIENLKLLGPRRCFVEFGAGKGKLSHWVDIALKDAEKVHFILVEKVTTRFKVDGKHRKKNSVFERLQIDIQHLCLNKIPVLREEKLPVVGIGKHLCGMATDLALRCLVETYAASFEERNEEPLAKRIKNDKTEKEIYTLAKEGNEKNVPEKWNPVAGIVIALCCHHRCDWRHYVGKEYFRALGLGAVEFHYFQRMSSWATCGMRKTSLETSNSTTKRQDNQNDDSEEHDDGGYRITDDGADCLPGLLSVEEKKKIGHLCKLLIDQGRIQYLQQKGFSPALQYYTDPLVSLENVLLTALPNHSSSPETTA
UniProt Q5JTV8: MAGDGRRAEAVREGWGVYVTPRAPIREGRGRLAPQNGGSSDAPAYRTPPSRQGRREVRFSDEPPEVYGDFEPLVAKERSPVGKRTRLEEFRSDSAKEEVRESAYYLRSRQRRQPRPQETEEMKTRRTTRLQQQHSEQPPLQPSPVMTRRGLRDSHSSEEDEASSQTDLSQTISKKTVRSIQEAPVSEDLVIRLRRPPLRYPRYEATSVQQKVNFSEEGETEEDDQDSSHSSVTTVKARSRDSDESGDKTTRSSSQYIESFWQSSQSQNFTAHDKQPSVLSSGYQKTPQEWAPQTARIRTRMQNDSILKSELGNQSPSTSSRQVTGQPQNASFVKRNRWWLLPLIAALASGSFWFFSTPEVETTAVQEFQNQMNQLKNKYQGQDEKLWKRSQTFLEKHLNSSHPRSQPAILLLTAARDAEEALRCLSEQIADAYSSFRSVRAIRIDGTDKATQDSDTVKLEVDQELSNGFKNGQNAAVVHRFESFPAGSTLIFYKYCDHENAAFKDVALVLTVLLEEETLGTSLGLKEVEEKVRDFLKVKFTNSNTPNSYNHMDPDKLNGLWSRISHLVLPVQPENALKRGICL
UniProt Q9Y5R8, whole entry, looked up: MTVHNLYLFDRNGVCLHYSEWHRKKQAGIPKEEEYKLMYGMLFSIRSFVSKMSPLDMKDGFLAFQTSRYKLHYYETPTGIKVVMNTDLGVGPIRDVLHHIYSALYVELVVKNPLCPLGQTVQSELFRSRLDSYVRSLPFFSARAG
UniProt Q8NCE0: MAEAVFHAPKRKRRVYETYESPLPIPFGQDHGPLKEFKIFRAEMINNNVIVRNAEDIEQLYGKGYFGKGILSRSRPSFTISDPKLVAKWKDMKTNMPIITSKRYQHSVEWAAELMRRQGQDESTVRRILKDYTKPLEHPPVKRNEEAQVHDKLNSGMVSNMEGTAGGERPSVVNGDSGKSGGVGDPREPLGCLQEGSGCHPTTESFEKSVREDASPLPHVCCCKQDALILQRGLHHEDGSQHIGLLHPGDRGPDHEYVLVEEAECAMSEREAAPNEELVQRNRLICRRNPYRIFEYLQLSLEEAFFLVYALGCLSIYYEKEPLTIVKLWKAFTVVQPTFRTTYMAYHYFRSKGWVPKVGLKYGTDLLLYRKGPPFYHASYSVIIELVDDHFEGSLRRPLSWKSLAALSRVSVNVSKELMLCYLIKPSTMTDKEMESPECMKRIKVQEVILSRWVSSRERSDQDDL
UniProt P36406: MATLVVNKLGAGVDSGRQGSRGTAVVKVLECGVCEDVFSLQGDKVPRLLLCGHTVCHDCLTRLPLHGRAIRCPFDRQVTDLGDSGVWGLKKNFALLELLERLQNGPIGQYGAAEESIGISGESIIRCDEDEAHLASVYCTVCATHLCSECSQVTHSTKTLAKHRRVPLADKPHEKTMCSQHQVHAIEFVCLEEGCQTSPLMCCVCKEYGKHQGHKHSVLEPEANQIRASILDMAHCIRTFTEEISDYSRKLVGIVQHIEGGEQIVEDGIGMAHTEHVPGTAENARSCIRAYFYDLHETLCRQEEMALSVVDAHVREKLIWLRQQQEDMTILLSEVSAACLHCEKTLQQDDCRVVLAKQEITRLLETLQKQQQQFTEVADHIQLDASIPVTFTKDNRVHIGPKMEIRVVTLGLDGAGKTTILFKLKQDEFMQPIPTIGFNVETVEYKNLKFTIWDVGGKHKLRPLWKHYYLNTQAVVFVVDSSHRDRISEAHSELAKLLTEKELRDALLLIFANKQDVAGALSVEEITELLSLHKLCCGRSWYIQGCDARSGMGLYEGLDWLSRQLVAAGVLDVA
UniProt P06753, whole entry, looked up: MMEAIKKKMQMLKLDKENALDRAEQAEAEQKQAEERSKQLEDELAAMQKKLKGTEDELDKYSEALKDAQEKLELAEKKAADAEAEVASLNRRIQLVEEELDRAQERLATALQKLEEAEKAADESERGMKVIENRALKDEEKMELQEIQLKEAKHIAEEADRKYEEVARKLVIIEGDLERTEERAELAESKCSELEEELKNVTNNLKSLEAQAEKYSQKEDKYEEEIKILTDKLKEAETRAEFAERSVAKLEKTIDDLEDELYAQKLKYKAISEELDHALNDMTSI
UniProt P51580: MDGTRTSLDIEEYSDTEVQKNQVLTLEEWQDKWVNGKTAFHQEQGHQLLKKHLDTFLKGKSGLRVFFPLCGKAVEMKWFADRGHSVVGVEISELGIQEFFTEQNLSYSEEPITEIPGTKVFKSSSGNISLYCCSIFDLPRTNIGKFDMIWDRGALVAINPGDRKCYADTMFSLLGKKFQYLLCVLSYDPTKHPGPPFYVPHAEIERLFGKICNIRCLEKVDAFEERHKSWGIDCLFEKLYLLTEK
UniProt Q86TN4: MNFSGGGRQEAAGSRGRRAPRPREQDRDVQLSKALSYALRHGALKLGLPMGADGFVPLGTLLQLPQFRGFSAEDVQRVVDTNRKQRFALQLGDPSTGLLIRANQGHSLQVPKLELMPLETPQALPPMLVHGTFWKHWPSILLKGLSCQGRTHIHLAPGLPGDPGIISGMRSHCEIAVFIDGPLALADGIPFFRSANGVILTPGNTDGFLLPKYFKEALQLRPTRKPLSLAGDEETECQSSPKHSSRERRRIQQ
UniProt Q15035: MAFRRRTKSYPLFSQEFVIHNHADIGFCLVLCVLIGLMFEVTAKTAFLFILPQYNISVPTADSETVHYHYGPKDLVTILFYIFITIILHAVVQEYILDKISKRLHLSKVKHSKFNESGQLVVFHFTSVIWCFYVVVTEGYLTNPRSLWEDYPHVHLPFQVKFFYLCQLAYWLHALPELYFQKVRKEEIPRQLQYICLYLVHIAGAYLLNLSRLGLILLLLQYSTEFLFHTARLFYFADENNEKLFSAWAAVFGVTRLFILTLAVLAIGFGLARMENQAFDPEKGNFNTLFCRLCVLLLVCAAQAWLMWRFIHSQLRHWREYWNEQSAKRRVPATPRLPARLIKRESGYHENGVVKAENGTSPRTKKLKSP
UniProt Q9C035: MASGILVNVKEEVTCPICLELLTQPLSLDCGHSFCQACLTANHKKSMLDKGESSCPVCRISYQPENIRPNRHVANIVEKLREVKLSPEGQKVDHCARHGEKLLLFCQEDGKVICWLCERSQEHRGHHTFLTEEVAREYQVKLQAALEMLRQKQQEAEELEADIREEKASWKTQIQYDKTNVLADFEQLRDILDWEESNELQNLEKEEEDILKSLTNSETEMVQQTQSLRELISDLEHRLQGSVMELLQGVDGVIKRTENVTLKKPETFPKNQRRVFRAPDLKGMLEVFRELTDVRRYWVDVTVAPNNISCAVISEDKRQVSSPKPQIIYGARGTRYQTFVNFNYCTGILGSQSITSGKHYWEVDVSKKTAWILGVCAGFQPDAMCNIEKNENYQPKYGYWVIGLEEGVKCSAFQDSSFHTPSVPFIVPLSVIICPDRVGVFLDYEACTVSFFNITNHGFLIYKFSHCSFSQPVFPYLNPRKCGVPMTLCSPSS
UniProt Q14258, whole entry, looked up: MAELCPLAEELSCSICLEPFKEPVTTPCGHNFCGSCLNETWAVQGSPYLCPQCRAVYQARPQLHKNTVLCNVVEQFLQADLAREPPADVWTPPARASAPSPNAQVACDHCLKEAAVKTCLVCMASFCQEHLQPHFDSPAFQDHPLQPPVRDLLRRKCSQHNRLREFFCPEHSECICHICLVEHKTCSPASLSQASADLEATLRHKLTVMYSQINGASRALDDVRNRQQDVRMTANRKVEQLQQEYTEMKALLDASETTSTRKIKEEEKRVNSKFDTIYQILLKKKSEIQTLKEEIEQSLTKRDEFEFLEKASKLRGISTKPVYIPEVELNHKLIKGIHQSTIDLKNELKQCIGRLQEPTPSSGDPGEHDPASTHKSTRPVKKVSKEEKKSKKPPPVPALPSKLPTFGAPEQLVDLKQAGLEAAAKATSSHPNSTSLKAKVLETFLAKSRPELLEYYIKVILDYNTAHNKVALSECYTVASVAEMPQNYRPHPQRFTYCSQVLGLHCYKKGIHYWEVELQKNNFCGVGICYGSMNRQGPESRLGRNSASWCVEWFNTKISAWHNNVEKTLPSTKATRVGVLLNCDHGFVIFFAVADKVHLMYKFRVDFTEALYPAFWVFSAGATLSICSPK

What was measured:
Test in all cases: log2 fold change, soluble protein after heating vs DMSO (PISA); higher = thermal stabilisation; K562 cells, 10 uM, 30 min; active = over 0.2 and 3.5 SD of the protein, either way, in both replicates (recomputed)
[1] = compound: NC(=O)Nc1cc(-c2cccc(F)c2)sc1C(=O)N[C@H]1CCCNC1
In short: (§1)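 K562 cells at 2×10^6 cells/mL were given 10 μM compound for 30 min. Aliquots then went through 3 min of heating across 48°C-58°C, were pooled, and were extracted in PBS with 0.5% NP-40 at 4°C, and the supernatant after 21,000xg for 90 min was quantified by TMTpro 16plex LC-MS/MS with channel sums equalised. Thermal stability relative to control samples, from duplicates, is given as log2 fold change.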

[2] = compound: NC(=O)c1cnc(N[C@@H]2CCCC[C@@H]2N)nc1Nc1cccc(-n2nccn2)c1
In short: as §1

[3] = compound: NC1(c2ccc(-c3nc4ccn5c(=O)[nH]nc5c4cc3-c3ccccc3)cc2)CCC1
In short: as §1

[4] = compound: NCC(=O)Nc1ccc(-n2nc(C(F)(F)F)cc2-c2ccc3c(ccc4ccccc43)c2)cc1
In short: as §1

[5] = compound: Nc1ccccc1NC(=O)c1ccc(CNC(=O)OCc2cccnc2)cc1 [entinostat]
In short: as §1

[6] = compound: O=C(CCCCCCC(=O)Nc1ccccc1)NO [vorinostat]
In short: as §1

[7] = compound: O=C(CCCCCCNC(=O)c1cnc(N(c2ccccc2)c2ccccc2Cl)nc1)NO [citarinostat]
In short: as §1

[8] = compound: O=C(O)c1ccc2c(c1)nc(Nc1cccc(Cl)c1)c1ccncc12 [silmitasertib]
In short: as §1

[9] = compound: O=C1NC(=O)C(c2cnc3ccccn23)=C1c1cn2c3c(cc(F)cc13)CN(C(=O)N1CCCCC1)CC2
In short: as §1

[10] = compound: c1cc(OCCN2CCCCC2)cc(-c2n[nH]c3ccc(-c4nnc[nH]4)cc23)c1
In short: as §1

Row | Target | log2 fold change [1] | log2 fold change [2] | log2 fold change [3] | log2 fold change [4] | log2 fold change [5] | log2 fold change [6] | log2 fold change [7] | log2 fold change [8] | log2 fold change [9] | log2 fold change [10]
1 | TRIP13 (UniProt Q15645) | inactive: 0.03 | inactive: -0.016 | inactive: -0.142 | inactive: 0.003 | inactive: 0.012 | inactive: 0.069 | inactive: 0.064 | inactive: -0.028 | inactive: -0.008 | inactive: -0.049
2 | TRRAP (UniProt Q9Y4A5) | inactive: 0.02 | inactive: -0.013 | inactive: -0.042 | inactive: 0.008 | inactive: -0.037 | inactive: -0.02 | inactive: 0.012 | inactive: 0.018 | inactive: -0.011 | inactive: -0.044
3 | TRAPPC5 (UniProt Q8IUR0) | inactive: 0.027 | inactive: -0.071 | inactive: -0.08 | inactive: -0.025 | inactive: -0.004 | inactive: 0.062 | inactive: 0.032 | inactive: 0.027 | inactive: 0.059 | inactive: -0.097
4 | TNNC2 (UniProt P02585) | inactive: -0.003 | inactive: 0.006 | inactive: -0.028 | inactive: 0.028 | inactive: -0.025 | inactive: -0.101 | inactive: 0.048 | inactive: -0.026 | inactive: -0.033 | inactive: -0.003
5 | TRAFD1 (UniProt O14545) | inactive: 0.024 | inactive: 0.005 | inactive: 0.021 | inactive: 0.109 | inactive: -0.078 | inactive: -0.042 | inactive: 0.051 | inactive: 0.033 | inactive: -0.025 | inactive: 0.012
6 | TPRKB (UniProt Q9Y3C4) | inactive: -0.082 | inactive: -0.001 | inactive: -0.033 | inactive: 0.056 | inactive: 0.016 | inactive: -0.025 | inactive: 0.054 | inactive: -0.005 | inactive: -0.028 | inactive: -0.053
7 | TRMT61A (UniProt Q96FX7) | inactive: 0.027 | inactive: 0.017 | inactive: 0.17 | inactive: 0.101 | inactive: -0.029 | inactive: 0.03 | inactive: 0.005 | inactive: 0.099 | inactive: 0.293 | inactive: -0.146
8 | TP53BP1 isoform 2 (UniProt Q12888) | inactive: 0.014 | inactive: -0.056 | inactive: -0.072 | inactive: -0.008 | inactive: 0.018 | inactive: 0.031 | inactive: 0.074 | inactive: 0.117 | inactive: -0.035 | inactive: -0.029
9 | TRAF4 (UniProt Q9BUZ4) | inactive: 0.001 | inactive: 0.084 | inactive: -0.019 | inactive: -0.046 | inactive: -0.022 | inactive: 0.022 | inactive: 0.025 | inactive: -0.009 | inactive: -0.012 | inactive: -0.027
10 | TPR (UniProt P12270) | inactive: 0.09 | inactive: -0.039 | inactive: 0.06 | inactive: -0.032 | inactive: -0.019 | inactive: -0.084 | inactive: 0.008 | active: 0.3 | inactive: 0.085 | inactive: 0.005
11 | TPP2 (UniProt Q5VZU9) | inactive: 0.033 | inactive: 0.306 | inactive: 0.188 | inactive: 0.118 | inactive: -0.074 |  | inactive: -0.08 | inactive: 0.07 | inactive: 0.269 | inactive: -0.274
12 | TRIM56 (UniProt Q9BRZ2) | inactive: -0.036 | inactive: -0.025 | inactive: 0.176 |  | inactive: 0.13 | inactive: 0.05 | inactive: -0.096 | inactive: 0.104 | inactive: 0.239 | inactive: -0.21
13 | TOMM7 (UniProt Q9P0U1) | inactive: -0.021 |  | inactive: 0.024 | inactive: -0.05 | inactive: 0.018 | inactive: -0.091 | inactive: -0.001 | inactive: 0.029 | inactive: -0.069 | inactive: -0.062
14 | TRMT13 (UniProt Q9NUP7) | inactive: -0.006 | inactive: -0.041 | inactive: -0.114 | inactive: -0.067 | inactive: 0.008 | inactive: -0.033 | inactive: 0.038 | inactive: -0.011 | inactive: -0.141 | inactive: -0.125
15 | TOR1AIP1 (UniProt Q5JTV8) | inactive: 0.026 | inactive: -0.061 | inactive: 0.039 |  | inactive: -0.061 | inactive: 0.098 | inactive: 0.025 | inactive: 0.016 | inactive: -0.156 | inactive: -0.118
16 | TRAPPC1 (UniProt Q9Y5R8) | inactive: -0.049 | inactive: 0.006 | inactive: -0.159 | inactive: -0.027 | inactive: 0.007 | inactive: 0.058 | inactive: 0.001 | inactive: 0.031 |  | inactive: -0.018
17 | TSEN34 (UniProt Q9BSV6) | inactive: 0.004 | inactive: 0.11 | inactive: -0.183 | inactive: -0.057 | inactive: 0.04 |  | inactive: 0.01 | inactive: 0.042 | inactive: -0.114 | inactive: 0.036
18 | TRIO (UniProt O75962) | inactive: -0.093 | inactive: -0.042 | inactive: -0.173 |  | inactive: -0.029 |  | inactive: -0.022 | inactive: -0.042 | inactive: -0.067 | inactive: 0.071
19 | TRIP10 isoform 2 (UniProt Q15642) | inactive: -0.067 | inactive: 0.057 | inactive: -0.065 | active: -0.849 | inactive: -0.2 | inactive: 0.026 | inactive: -0.11 | inactive: -0.065 | inactive: -0.052 | inactive: 0.008
20 | TSEN2 (UniProt Q8NCE0) | inactive: 0.212 | inactive: -0.008 | inactive: -0.126 | inactive: -0.024 | inactive: 0.052 | inactive: -0.003 | inactive: 0.005 | inactive: 0.197 | inactive: -0.015 | inactive: 0.008
21 | TRIM23 (UniProt P36406) | inactive: -0.025 |  | inactive: -0.02 | inactive: -0.083 | inactive: -0.01 | inactive: 0.06 | inactive: 0.015 | inactive: -0.044 |  | inactive: -0.026
22 | TRMT112 (UniProt Q9UI30) | inactive: -0.036 | inactive: -0.026 | inactive: -0.008 | inactive: 0.014 | inactive: -0.053 | inactive: -0.108 | inactive: 0.019 | inactive: -0.023 | inactive: -0.108 | inactive: -0.013
23 | TOM1L2 (UniProt Q6ZVM7) | inactive: 0.089 | inactive: -0.136 |  | inactive: -0.098 | inactive: 0.036 |  |  |  | inactive: -0.043 | 
24 | TPM3 isoform 2 (UniProt P06753) | inactive: -0.024 | inactive: 0.031 | inactive: -0.004 | inactive: 0.046 | inactive: 0.016 | inactive: -0.079 | inactive: -0.054 | inactive: -0.011 | inactive: -0.005 | inactive: 0.046
25 | TPMT (UniProt P51580) | inactive: -0.059 | inactive: -0.019 | inactive: -0.048 | inactive: 0.099 | inactive: 0.012 | inactive: -0.06 | inactive: 0.026 | inactive: 0.012 | inactive: -0.039 | inactive: 0.003
26 | TRPT1 isoform 4 (UniProt Q86TN4) | inactive: 0.037 | inactive: 0.235 | inactive: 0 |  | inactive: 0.123 |  | inactive: 0.029 | inactive: 0.059 |  | inactive: -0.025
27 | TRPC4AP (UniProt Q8TEL6) | inactive: 0.035 | inactive: -0.134 | inactive: 0.013 | inactive: -0.036 | inactive: 0.195 | inactive: 0.057 |  | inactive: -0.063 | inactive: -0.041 | 
28 | TRAM2 (UniProt Q15035) | inactive: -0.162 | inactive: 0.031 |  | inactive: -0.159 | inactive: -0.059 |  | inactive: 0.042 |  |  | inactive: -0.158
29 | TRIM5 (UniProt Q9C035) | inactive: -0.219 | inactive: -0.085 |  | inactive: -0.006 | inactive: 0.137 |  |  |  | inactive: 0.024 | 
30 | TRIM25 (UniProt Q14258) | inactive: -0.001 | inactive: 0.027 | inactive: 0.165 | inactive: 0.056 | inactive: 0.046 | inactive: 0.01 | inactive: -0.001 | inactive: 0.192 | inactive: 0.178 | inactive: -0.148

Entries 25 to 26, reprinted for reference:
Row | Target | log2 fold change [1] | log2 fold change [2] | log2 fold change [3] | log2 fold change [4] | log2 fold change [5] | log2 fold change [6] | log2 fold change [7] | log2 fold change [8] | log2 fold change [9] | log2 fold change [10]
25 | TPMT (UniProt P51580) | inactive: -0.059 | inactive: -0.019 | inactive: -0.048 | inactive: 0.099 | inactive: 0.012 | inactive: -0.06 | inactive: 0.026 | inactive: 0.012 | inactive: -0.039 | inactive: 0.003
26 | TRPT1 isoform 4 (UniProt Q86TN4) | inactive: 0.037 | inactive: 0.235 | inactive: 0 |  | inactive: 0.123 |  | inactive: 0.029 | inactive: 0.059 |  | inactive: -0.025
